Results on 2 substances are retold here after PMC11396530.

Protein sequences, listed by entry. Tags and fused reporters are not part of them. Residues count along the entry.
UniProt Q14694: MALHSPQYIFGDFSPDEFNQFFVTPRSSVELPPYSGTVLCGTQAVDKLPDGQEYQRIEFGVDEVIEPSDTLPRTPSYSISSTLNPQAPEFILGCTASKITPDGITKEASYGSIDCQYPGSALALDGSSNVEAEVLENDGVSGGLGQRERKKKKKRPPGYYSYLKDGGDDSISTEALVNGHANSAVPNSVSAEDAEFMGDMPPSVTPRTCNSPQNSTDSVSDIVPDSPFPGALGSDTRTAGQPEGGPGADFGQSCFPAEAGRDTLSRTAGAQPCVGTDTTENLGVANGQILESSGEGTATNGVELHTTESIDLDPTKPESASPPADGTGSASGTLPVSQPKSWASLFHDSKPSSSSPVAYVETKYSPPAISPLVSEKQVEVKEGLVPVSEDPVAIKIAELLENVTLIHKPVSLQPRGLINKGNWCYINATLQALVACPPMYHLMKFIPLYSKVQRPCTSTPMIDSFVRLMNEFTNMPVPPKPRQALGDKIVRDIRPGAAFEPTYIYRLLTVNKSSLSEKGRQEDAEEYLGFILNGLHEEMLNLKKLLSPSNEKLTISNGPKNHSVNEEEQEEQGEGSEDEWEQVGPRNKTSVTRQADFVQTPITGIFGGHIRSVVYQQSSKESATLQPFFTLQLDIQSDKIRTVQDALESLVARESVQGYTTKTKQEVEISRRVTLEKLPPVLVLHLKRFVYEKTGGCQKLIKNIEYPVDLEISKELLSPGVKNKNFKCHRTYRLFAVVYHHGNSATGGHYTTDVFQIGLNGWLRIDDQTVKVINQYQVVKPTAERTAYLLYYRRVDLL
UniProt P11021, residues 19-654: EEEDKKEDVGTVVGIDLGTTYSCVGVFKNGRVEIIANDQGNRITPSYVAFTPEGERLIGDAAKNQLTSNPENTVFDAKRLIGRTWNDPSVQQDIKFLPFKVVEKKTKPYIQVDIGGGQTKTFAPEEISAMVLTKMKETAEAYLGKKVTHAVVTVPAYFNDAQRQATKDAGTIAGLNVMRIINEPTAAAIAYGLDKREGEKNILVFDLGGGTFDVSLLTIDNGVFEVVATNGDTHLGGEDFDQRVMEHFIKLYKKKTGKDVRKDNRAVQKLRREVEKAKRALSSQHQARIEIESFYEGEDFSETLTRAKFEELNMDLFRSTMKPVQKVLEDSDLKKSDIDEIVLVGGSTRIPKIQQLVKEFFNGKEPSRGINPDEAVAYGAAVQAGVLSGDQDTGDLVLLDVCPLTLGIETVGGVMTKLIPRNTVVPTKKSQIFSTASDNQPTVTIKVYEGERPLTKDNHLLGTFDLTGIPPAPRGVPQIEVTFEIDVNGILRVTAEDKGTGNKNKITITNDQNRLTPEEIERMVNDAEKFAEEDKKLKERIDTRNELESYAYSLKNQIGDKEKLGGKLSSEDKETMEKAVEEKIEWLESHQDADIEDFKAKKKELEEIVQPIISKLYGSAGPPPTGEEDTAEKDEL

Assay [1] deals with T1, glucosidase I (GCS1), endogenous (human (endogenous in DLD-1 and RKO)) (UniProt Q13724).
T1 sequence: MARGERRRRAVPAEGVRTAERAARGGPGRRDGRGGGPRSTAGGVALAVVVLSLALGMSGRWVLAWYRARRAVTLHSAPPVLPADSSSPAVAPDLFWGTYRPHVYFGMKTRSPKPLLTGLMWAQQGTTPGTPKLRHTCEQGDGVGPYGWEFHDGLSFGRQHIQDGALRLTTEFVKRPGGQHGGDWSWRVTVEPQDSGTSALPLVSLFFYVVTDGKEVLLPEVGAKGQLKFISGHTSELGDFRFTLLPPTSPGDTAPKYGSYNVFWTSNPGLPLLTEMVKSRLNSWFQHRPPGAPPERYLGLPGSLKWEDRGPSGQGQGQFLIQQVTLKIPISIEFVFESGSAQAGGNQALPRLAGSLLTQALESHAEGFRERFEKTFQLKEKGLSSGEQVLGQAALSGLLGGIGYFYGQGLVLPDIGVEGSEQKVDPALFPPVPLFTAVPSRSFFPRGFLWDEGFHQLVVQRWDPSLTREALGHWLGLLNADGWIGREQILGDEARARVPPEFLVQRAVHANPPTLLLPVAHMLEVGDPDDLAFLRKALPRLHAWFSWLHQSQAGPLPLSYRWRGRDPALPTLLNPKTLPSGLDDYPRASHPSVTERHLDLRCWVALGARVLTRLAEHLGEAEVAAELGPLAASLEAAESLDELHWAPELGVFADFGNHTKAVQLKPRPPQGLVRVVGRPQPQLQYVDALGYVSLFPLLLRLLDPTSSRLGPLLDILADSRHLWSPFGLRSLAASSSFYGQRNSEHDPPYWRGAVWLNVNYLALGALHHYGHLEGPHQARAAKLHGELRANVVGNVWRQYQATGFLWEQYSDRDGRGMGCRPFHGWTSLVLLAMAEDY
The assay is described as follows: co-IP; endogenous proteins in DLD-1 and RKO cell lysates, Protein A/G magnetic beads, 12 h at 4 °C, Western blot; for USP10 with GRP78 also after GCS1 knock-down (DLD-1) or GCS1 overexpression (HCT 116). For orientation: In western blotting, separated proteins are transferred to a membrane and probed.

Assay [2] addresses USP10, endogenous (human (endogenous in DLD-1, RKO and HCT 116)) (UniProt Q14694). Described as above.
For assay [3], the target named is T2, Flag-GCS1-FL (UniProt Q13724).
T2 sequence: T1 sequence
The assay is described as follows: co-IP; HEK293T cells transfected with tagged plasmids (Flag-GCS1-FL/N/C, Myc-GRP78, USP10), lysate, Western blot.

Assay [4] deals with T3, Flag-GCS1-C (UniProt Q13724).
T3 sequence: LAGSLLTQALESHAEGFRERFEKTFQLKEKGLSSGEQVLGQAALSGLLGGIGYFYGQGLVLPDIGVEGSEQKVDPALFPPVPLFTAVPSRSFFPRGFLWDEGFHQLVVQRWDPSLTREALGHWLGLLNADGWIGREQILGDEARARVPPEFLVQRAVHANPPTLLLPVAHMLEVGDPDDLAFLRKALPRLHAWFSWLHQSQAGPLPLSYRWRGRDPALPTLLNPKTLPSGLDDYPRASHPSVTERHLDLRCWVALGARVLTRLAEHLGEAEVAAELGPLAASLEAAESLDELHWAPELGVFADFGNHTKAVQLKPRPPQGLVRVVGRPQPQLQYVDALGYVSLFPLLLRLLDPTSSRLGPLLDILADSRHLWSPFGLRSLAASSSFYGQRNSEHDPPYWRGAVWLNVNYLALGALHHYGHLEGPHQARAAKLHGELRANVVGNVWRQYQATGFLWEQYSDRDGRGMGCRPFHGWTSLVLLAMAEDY
The assay is described as above.

Assay [5] has as its target His-USP10 (UniProt Q14694). The description is as above.

Results are given in words; binding and its absence hold for the method and conditions named. In cells and extracts the contact can be indirect. Some entries that bind do so weakly or less than the wild type. For some assays here: Where a sequence is shown, tags or fusion partners need not be part of it.

With “GRP78, endogenous (from UniProt P11021 19-654)”, the binding result in assay [1] and in assay [2] was “binds” each time.

Regarding Myc-GRP78 (from UniProt P11021 19-654), the binding entry in assay [3], in assay [4] and in assay [5] was “binds” throughout.
